These are yes or no findings as the source states them, for the method shown. In cells and extracts the contact can be indirect. These calls come from enrichment with a bait or labelling near it, and not all partners need be listed.

Protein sequences, listed by entry. Tags and fused reporters are not part of them. Residues count along the entry.
UniProt P02545, residues 1-646: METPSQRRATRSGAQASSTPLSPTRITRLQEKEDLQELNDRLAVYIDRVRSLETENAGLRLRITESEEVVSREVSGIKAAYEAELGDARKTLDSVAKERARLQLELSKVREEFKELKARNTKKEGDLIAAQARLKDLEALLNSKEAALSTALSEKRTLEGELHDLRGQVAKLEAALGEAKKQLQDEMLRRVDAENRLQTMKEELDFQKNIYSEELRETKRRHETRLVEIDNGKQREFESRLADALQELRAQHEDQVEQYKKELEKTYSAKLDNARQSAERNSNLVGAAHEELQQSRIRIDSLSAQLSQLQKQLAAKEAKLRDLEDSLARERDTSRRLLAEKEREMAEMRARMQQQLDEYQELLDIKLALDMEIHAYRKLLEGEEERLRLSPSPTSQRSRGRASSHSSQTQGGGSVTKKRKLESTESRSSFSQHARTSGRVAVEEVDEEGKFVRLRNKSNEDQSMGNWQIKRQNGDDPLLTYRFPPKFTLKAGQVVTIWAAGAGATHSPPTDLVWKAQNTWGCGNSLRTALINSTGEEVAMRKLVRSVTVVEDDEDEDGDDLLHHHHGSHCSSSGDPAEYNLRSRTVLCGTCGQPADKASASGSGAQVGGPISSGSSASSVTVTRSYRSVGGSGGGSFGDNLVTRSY

This experiment deals with T1, NADPH oxidase isoform 4 (Nox4) (human (endogenous in AFSC)) (UniProt Q9NPH5).
T1 sequence: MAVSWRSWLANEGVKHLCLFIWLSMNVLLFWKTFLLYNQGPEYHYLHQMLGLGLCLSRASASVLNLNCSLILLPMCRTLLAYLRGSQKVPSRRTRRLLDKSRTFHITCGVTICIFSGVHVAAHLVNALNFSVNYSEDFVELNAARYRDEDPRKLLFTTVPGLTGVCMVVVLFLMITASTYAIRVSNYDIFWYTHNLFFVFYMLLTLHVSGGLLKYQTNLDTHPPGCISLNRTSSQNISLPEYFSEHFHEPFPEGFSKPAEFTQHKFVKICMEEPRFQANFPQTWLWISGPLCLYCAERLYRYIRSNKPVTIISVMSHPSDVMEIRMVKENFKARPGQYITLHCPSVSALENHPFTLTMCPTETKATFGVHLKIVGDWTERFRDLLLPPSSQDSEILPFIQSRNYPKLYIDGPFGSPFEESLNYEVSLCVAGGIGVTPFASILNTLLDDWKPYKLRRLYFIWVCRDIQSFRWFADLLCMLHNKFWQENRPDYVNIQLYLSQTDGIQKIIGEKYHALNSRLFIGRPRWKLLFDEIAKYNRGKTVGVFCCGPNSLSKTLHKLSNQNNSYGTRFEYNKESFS
The experiment can be described thus: affinity purification with mass spectrometry; Nox4 immunoprecipitated from lysates of isolated AFSC nuclei; SDS-PAGE, Coomassie bands, in-gel trypsin digestion, LC/MS/MS, Mascot; called preliminary.

On to “lamin A proteins (from UniProt P02545 1-646)”, for which the binding entry is given as “binds”.

Values taken from paper PMC6224265.
